Experiments:
[1] = general procedure: Fmoc solid-phase peptide synthesis; Wang's alkoxy resin (0.60 mmol/gm loading); HBTU, DIEA; conditions: for crude HPLC purity: 254 nm
[2] = general procedure: Fmoc solid-phase peptide synthesis; Wang resin; HBTU, DIEA; conditions: whole synthesis, HPLC method A, 254 nm

## Fmoc-β-Ala-Ile-Ala-Leu-Dox
[1]; conjugation step
  conjugation yield: 88%
[1]; conjugation step, HPLC method A
  crude HPLC purity: 92%

## Suc-βAla-Ile-Ala-Leu-Dox
[1]; late stage modification step
  step yield: 78%
[1]; late stage modification step, HPLC method B
  crude HPLC purity: 86%

## Suc-βAla-Leu-Ala-Leu-Dox.Na
[1]; late stage modification step, sodium salt
  step yield: 87%

## Fmoc-β-Ala-Ile-Ala-Leu-OH
[2]
  crude HPLC purity: 92%

## MeOSuc-βAla-Leu-Ala-Leu-Dox
[1]; purification step, HPLC (method A, method B)
  final HPLC purity: 96.5%

— US20050267016A1 (priority 2001, published 2005)
